From the supplement of paper PMC5949888
± gives the standard deviation of the averaged measurements. Most values lie at the floor of the assay. Slopes are relative: functional sequences can read slightly below zero.

Test system: Saccharomyces cerevisiae PS128 hsf1 delta, HSF1(1-493) fusion
Assay: growth estimate (transactivation domain function in HSF1 fusion, heat-shock survival) (a.u. (slope of normalised read count over time)); higher = stronger growth at 37°C, i.e. more transactivation activity
Conditions: library: random library

Substance | growth estimate
PRAWWGTIDLLQVL | < -0.25
PRCIGPDGG | < -0.25
PRDKGNTSPMVVRGAIRHTG | < -0.25
PREGRKGRSGFRIQSGSYDA | < -0.25
PRGGRIRRILLVTIRFPDPP | < -0.25
PRGGRVGCYRVISPLADRSL | < -0.25
PRGLVTLGGSHRFRLNVRPV | < -0.25
PRGQFISLRSCSA | < -0.25
PRGRR | < -0.25
PRGTFCYERLECSVSIDTSI | < -0.25
PRGVRGDVNCGFYVCGTGSH | < -0.25
PRIGWLLLEWIGDG | < -0.25
PRIMAVQSPLG | < -0.25
PRIPFRIRS | < -0.25
PRIRNDS | < -0.25
PRKRMKRQVRVSDKTAGFER | < -0.25
PRL | < -0.25
PRLGRTLFIVSCDEPFFSHL | < -0.25
PRLHILCALPATTVSQALSR | < -0.25
PRMLLTPVRHVLCGGLHGSG | < -0.25
PRNAGKADCPPV | < -0.25
PRNKK | < -0.25
PRPSFYGTSMFKSLS | < -0.25
PRPSH | < -0.25
PRRFNPGRHTHNSSGRRDAH | < -0.25
PRRGFSIHMRDVWECFRRGL | < -0.25

Substance | growth estimate
PRRGTHLSDRDEGRLWIVLS | < -0.25
PRRICNK | < -0.25
PRRPGYPASSKAKKQTANCT | < -0.25
PRRRDWEIVGCWKCAVFAAR | < -0.25
PRRREATANQLAPVAKVRLL | < -0.25
PRRTLVGPYRETWRSLSVVA | < -0.25
PRSIEDGAASAPPPRTESQW | < -0.25
PRSPLYPAPPGDNRTMNSLG | -0.23
PRSRRACTRYVSSLRIQAFS | < -0.25
PRSW | < -0.25
PRTPVPRGKPSVP | < -0.25
PRTRFS | < -0.25
PRTVSRLPIPRREMRISDKG | < -0.25
PRTYVGAASWVTHGSGSTLG | < -0.25
PRVAVHT | < -0.25
PRVCLARLG | -0.245
PRVKGNGSMCRMTEM | < -0.25
PRVLSVLR | < -0.25
PRVRIAATTLPAIAPTFRSG | < -0.25
PRVRRSCLGEEGHGTSSKWK | < -0.25
PRWLSRVNSRTRSGLDMSWG | < -0.25
PRWVSRWRRGEGFCPYAAGP | -0.246
PRYLFSPVSRDLN | -0.237
PRYLPDHIKEVNPVRGWFHR | < -0.25
PSAFELG | < -0.25
PSAGCEISY | < -0.25

51 entries from above in a different format.
Substance	growth estimate
PRAWWGTIDLLQVL	< -0.25
PRCIGPDGG	< -0.25
PRDKGNTSPMVVRGAIRHTG	< -0.25
PREGRKGRSGFRIQSGSYDA	< -0.25
PRGGRIRRILLVTIRFPDPP	< -0.25
PRGGRVGCYRVISPLADRSL	< -0.25
PRGLVTLGGSHRFRLNVRPV	< -0.25
PRGQFISLRSCSA	< -0.25
PRGRR	< -0.25
PRGTFCYERLECSVSIDTSI	< -0.25
PRGVRGDVNCGFYVCGTGSH	< -0.25
PRIGWLLLEWIGDG	< -0.25
PRIMAVQSPLG	< -0.25
PRIPFRIRS	< -0.25
PRIRNDS	< -0.25
PRKRMKRQVRVSDKTAGFER	< -0.25
PRL	< -0.25
PRLGRTLFIVSCDEPFFSHL	< -0.25
PRLHILCALPATTVSQALSR	< -0.25
PRMLLTPVRHVLCGGLHGSG	< -0.25
PRNAGKADCPPV	< -0.25
PRNKK	< -0.25
PRPSFYGTSMFKSLS	< -0.25
PRPSH	< -0.25
PRRFNPGRHTHNSSGRRDAH	< -0.25
PRRGFSIHMRDVWECFRRGL	< -0.25
PRRGTHLSDRDEGRLWIVLS	< -0.25
PRRICNK	< -0.25
PRRPGYPASSKAKKQTANCT	< -0.25
PRRRDWEIVGCWKCAVFAAR	< -0.25
PRRREATANQLAPVAKVRLL	< -0.25
PRRTLVGPYRETWRSLSVVA	< -0.25
PRSIEDGAASAPPPRTESQW	< -0.25
PRSPLYPAPPGDNRTMNSLG	-0.23
PRSRRACTRYVSSLRIQAFS	< -0.25
PRSW	< -0.25
PRTPVPRGKPSVP	< -0.25
PRTRFS	< -0.25
PRTVSRLPIPRREMRISDKG	< -0.25
PRTYVGAASWVTHGSGSTLG	< -0.25
PRVAVHT	< -0.25
PRVCLARLG	-0.245
PRVKGNGSMCRMTEM	< -0.25
PRVLSVLR	< -0.25
PRVRIAATTLPAIAPTFRSG	< -0.25
PRVRRSCLGEEGHGTSSKWK	< -0.25
PRWLSRVNSRTRSGLDMSWG	< -0.25
PRWVSRWRRGEGFCPYAAGP	-0.246
PRYLFSPVSRDLN	-0.237
PRYLPDHIKEVNPVRGWFHR	< -0.25
PSAFELG	< -0.25

(list continues)

Substance | growth estimate
PSAK | < -0.25
PSASRSEDSV | < -0.25
PSCLPDSTPMARSYL | < -0.25
PSDMRL | < -0.25
PSDRPSAR | -0.202
PSE | < -0.25
PSEARRETKSGFTPSVSRHR | < -0.25
PSEIDDSMFAIAVRLAGLRR | < -0.25
PSELEGLTDTSTHNTLEITS | < -0.25
PSFAPNLIVD | -0.25
PSFNGRSWLDFTEKGSHN | < -0.25
PSFPRRKKTNTP | < -0.25
PSFRPFGSDTRRRVIYLKAQ | < -0.25
PSFYL | < -0.25
PSGTTNFDHG | < -0.25
PSHYQPAILSHWCRKQAFAP | < -0.25
PSIWLKPCIFWWPSGSGLTM | < -0.25
PSLCGRALKIRRCGLAPVSS | < -0.25
PSLGTGGSDLGLEGFILKC | < -0.25
PSLMSKGNLCPRVQC | < -0.25
PSLYPHLIP | < -0.25
PSMPLSGAWRGRWTAAGKSF | < -0.25
PSN | < -0.25
PSNFEPIPMKHSIKKSDRGP | < -0.25
PSNSGTLKFSGSLYGTA | < -0.25
PSP | < -0.25

Substance | growth estimate
PSPGPGINTRSFGFR | < -0.25
PSPL | < -0.25
PSPRLDFHWMDATSLAKGPV | < -0.25
PSPVLKSITNAKYVLV | < -0.25
PSQAKKCVP | < -0.25
PSQRTSKGF | < -0.25
PSR | < -0.25
PSRAGSYETQRSARVQFLSY | < -0.25
PSRDSALWRFNKIIKGTRYP | < -0.25
PSRGSRFGGRFETPGWDTLC | < -0.25
PSRLESLWLIGSS | < -0.25
PSRPRKFIRELTALVKYNPI | < -0.25
PSRRASHLGCTLRLTRRKLF | < -0.25
PSRVKGAPRLSDMKLRSGVV | < -0.25
PSSASRVQAGMQMMLRPKRR | < -0.25
PSSC | < -0.25
PSSEGSSPLTGDS | < -0.25
PSSFTRAQRTLIRWSKNNAR | < -0.25
PSSISS | < -0.25
PSSRI | < -0.25
PSSSRELGPAFLAASMTGLG | < -0.25
PSSVLSVTLNLTDC | < -0.25
PSTLPLFFL | < -0.25
PSVDKYPQWLPQLVGATSGK | < -0.25
PSVEKSWSTCVHGSPPRLSD | < -0.25
PSVGLEREFGHRKCRTLRSD | < -0.25

Substance | growth estimate
PSVPEGFSVASAGGV | < -0.25
PSVRQNQTQCSTLVLVSIPE | < -0.25
PSYL | < -0.25
PTARVVRAGT | < -0.25
PTDKSELV | -0.23
PTEVEGSLRGQGI | < -0.25
PTFTVETRR | < -0.25
PTFVRECPRP | < -0.25
PTGRGLHRVLIAVISNSGGI | < -0.25
PTGYEHG | < -0.25
PTI | -0.236 ± 0.024
PTICESSRCGCNLVRIGFLE | < -0.25
PTIDTTALLTVPFTLGPTVV | < -0.25
PTITA | < -0.25
PTKDMALGL | < -0.25
PTLRGIAL | < -0.25
PTLVSGHRKRACLIRATWP | < -0.25
PTMTSCS | < -0.25
PTMYCHINSPQGTWLRRIYP | < -0.25
PTNPMTRCPICSGGSSVLPR | < -0.25
PTNVEKYCIGPVA | < -0.25
PTNYRTRPCLLVKKRKKKGI | < -0.25
PTPP | < -0.25
PTR | < -0.25
PTRVDGPS | < -0.25
PTSEAHLE | < -0.25

Substance | growth estimate
PTSS | < -0.25
PTSSFAPWDLLM | 0.715
PTTIGDSTH | < -0.25
PTTLSCSGTAL | < -0.25
PTTVCCWGPPR | < -0.25
PTVVKTVEMEARLYVIAYVS | < -0.25
PVCYQEFFLMWRQLHRSSLT | -0.2
PVDSLCPSVEITLRFGRSFV | -0.229
PVFDRKIWSRFNYIGEELSA | < -0.25
PVFRTHLVR | < -0.25
PVGPSLQPLLARRWSTS | < -0.25
PVGVSRWFYIRGSATTQRGP | < -0.25
PVHGVGDHGGSQWVVVLCLN | < -0.25
PVIAECCG | < -0.25
PVINSALDKFFARGPRGYRW | < -0.25
PVKVFRDSPEIKASSIMSDC | < -0.25
PVLRPWCCDGRAKPWARSGH | < -0.25
PVLRSASGASSELIDARLLL | < -0.25
PVMCVLWLLSLG | < -0.25
PVNRSSAAYDVAAGDRRRSG | < -0.25
PVPNSCPRGSGCAWTFSRP | < -0.25
PVQGVCLLAPLNEPDCRKCM | < -0.25
PVQVS | < -0.25
PVRFGDH | < -0.25
PVRGIGGWLVLR | < -0.25
PVRPRDAPARPCSIQGESCS | < -0.25

Substance | growth estimate
PVRYSRRA | < -0.25
PVSDRSARRWVRASQLATSH | < -0.25
PVSHESLGSGCHGWDSNAPP | < -0.25
PVSTQIAPFPGDMRSAVTEG | < -0.25
PVTLNERGYLRALLVISVPE | < -0.25
PVTNGVKGGLRVMRIDYRDS | < -0.25
PVTRVRVRLLLDQPRYRPDP | < -0.25
PVVCYG | < -0.25
PVVKAGTGTRHPPPFLHHAF | < -0.25
PVVL | < -0.25
PVVRF | < -0.25
PVWEVESACPNSDSALAAKS | < -0.25
PVWL | < -0.25
PWD | < -0.25
PWFNRIRRFMGTGVFGCFSP | < -0.25
PWGGF | < -0.25
PWGSGMINRTLTNGGLPQPA | < -0.25
PWKQGMEMCREWSQLMP | < -0.25
PWLSRAVYPIGF | < -0.25
PWNGYVV | < -0.25
PWWEVVGNGSCSEGRSNGSA | < -0.25
PYAPYVHPHLDEVTK | < -0.25
PYCAELTSSMSSCN | < -0.25
PYCDWVGIKSVVS | < -0.25
PYFEVDNWHLLSQTLGKGAG | -0.245
PYFVQDYAARRGQPVHLYVR | < -0.25

Substance | growth estimate
PYGRRSFLICRRTA | < -0.25
PYHQRVSGDRLGTSIGSCAL | -0.233
PYKPLHGTRRSRPERPAPSA | < -0.25
PYLGFKVKYMLWFGTYTTPL | < -0.25
PYLHMLNGRISRGLGI | < -0.25
PYPVASRPKRLSVTAAPGSA | < -0.25
PYR | < -0.25
PYSECPQLCFGLAAITQTWA | < -0.25
PYSFVGNPLCAPNLVGLHVG | -0.199
PYSG | < -0.25
PYSGISFSKVTP | < -0.25
PYSPVRPTFSQATMDTCPTR | < -0.25
PYVKTAKDLPM | < -0.25
PYWGVAAT | < -0.25
QAAICAQ | < -0.25
QAARQAFIKE | < -0.25
QACGEFRPGSVATRGATCPG | < -0.25
QADNDTKTENSAIRRVKMSV | < -0.25
QAEGGYLWSLVWPSSE | < -0.25
